Measured values: patent publication US20160166525A1
Results are given in words; binding and its absence hold for the method and conditions named. Some binding calls cover weakened binding; strength is not graded here.

Target: T1, very long chain acyl-CoA dehydrogenase (VLCAD), mouse (mouse), P50544
T1 chain: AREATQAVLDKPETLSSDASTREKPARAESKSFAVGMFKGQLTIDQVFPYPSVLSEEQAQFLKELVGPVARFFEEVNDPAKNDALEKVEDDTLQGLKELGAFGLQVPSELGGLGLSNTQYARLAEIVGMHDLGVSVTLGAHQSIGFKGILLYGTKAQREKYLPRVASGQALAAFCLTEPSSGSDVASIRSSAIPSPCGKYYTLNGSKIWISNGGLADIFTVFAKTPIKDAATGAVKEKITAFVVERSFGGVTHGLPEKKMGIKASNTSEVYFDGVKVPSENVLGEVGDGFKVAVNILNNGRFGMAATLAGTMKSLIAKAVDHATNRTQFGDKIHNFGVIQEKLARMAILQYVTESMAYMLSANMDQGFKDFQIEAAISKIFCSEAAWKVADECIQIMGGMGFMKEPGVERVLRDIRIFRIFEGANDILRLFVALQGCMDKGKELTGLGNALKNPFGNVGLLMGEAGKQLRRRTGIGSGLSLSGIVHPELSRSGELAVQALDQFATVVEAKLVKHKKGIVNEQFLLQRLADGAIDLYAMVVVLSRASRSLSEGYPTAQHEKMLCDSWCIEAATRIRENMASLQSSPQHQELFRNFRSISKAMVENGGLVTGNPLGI
Experiment: native gel electrophoresis with Western blot, liver mitochondria fractions
Conditions: remark: other sources report otherwise

binding: binds
B1: very long chain acyl-CoA dehydrogenase (VLCAD), mouse, P50544 42-656 (enzyme, UniProt P50544 42-656, looked up)
chain: AREATQAVLDKPETLSSDASTREKPARAESKSFAVGMFKGQLTIDQVFPYPSVLSEEQAQFLKELVGPVARFFEEVNDPAKNDALEKVEDDTLQGLKELGAFGLQVPSELGGLGLSNTQYARLAEIVGMHDLGVSVTLGAHQSIGFKGILLYGTKAQREKYLPRVASGQALAAFCLTEPSSGSDVASIRSSAIPSPCGKYYTLNGSKIWISNGGLADIFTVFAKTPIKDAATGAVKEKITAFVVERSFGGVTHGLPEKKMGIKASNTSEVYFDGVKVPSENVLGEVGDGFKVAVNILNNGRFGMAATLAGTMKSLIAKAVDHATNRTQFGDKIHNFGVIQEKLARMAILQYVTESMAYMLSANMDQGFKDFQIEAAISKIFCSEAAWKVADECIQIMGGMGFMKEPGVERVLRDIRIFRIFEGANDILRLFVALQGCMDKGKELTGLGNALKNPFGNVGLLMGEAGKQLRRRTGIGSGLSLSGIVHPELSRSGELAVQALDQFATVVEAKLVKHKKGIVNEQFLLQRLADGAIDLYAMVVVLSRASRSLSEGYPTAQHEKMLCDSWCIEAATRIRENMASLQSSPQHQELFRNFRSISKAMVENGGLVTGNPLGI
